Experimental data: article doi:10.1101/2021.07.13.452210
Results are given in words; binding and its absence hold for the method and conditions named. Some binding calls cover weakened binding; strength is not graded here.

Target: T1, overexpressed CEP90 (UniProt Q8WXW3)
T1 sequence: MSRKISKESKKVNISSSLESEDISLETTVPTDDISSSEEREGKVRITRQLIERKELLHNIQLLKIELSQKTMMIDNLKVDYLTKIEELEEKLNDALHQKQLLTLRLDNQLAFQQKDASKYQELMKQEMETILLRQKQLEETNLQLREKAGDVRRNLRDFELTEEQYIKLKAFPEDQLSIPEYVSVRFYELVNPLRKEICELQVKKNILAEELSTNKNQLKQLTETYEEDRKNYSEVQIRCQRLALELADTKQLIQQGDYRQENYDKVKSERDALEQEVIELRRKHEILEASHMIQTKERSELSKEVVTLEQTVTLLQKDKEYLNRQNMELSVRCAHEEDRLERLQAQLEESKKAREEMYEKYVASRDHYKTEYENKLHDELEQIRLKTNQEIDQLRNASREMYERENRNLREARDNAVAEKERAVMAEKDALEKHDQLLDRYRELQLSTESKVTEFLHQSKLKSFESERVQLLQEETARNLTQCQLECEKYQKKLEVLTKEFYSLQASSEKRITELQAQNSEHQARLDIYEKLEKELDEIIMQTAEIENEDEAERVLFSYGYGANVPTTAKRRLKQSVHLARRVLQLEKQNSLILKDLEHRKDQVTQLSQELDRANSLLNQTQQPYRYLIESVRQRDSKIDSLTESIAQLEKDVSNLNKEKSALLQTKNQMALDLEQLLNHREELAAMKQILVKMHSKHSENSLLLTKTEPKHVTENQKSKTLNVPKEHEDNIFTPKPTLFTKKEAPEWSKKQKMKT
Test: microtubule recruitment

binding: binds
B1: endogenous CEP83 (protein, UniProt Q9Y592 1-701)
chain: MVVSTFTDMDTFPNNFPPGGDSGLTGSQSEFQKMLIDERLRCEHHKANYQTLKAEHTRLQNEHVKLQNELKHLFNEKQTQQEKLQLLLEELRGELVEKTKDLEEMKLQILTPQKLELLRAQIQQELETPMRERFRNLDEEVEKYRAVYNKLRYEHTFLKSEFEHQKEEYARILDEGKIKYESEIARLEEDKEELRNQLLNVDLTKDSKRVEQLAREKVYLCQKLKGLEAEVAELKAEKENSEAQVENAQRIQVRQLAEMQATVRSLEAEKQSANLRAERLEKELQSSSEQNTFLINKLHKAEREINTLSSKVKELKHSNKLEITDIKLETARAKSELERERNKIQSELDGLQSDNEILKAAVEHHKVLLVEKDRELIRKVQAAKEEGYQKLVVLQDEKLELENRLADLEKMKVEHDVWRQSEKDQYEEKLRASQMAEEITRKELQSVRLKLQQQIVTIENAEKEKNENSDLKQQISSLQIQVTSLAQSENDLLNSNQMLKEMVERLKQECRNFRSQAEKAQLEAEKTLEEKQIQWLEEKHKLHERITDREEKYNQAKEKLQRAAIAQKKRKSLHENKLKRLQEKVEVLEAKKEELETENQVLNRQNVPFEDYTRLQKRLKDIQRRHNEFRSLILVPNMPPTASINPVSFQSSAMVPSMELPFPPHMQEEQHQRELSLLRKRLEELETTQRKQLEELGSSGE
